Test results: PMC7463931, “Structure-Antifouling Activity Relationship and Molecular Targets of Bio-Inspired(thio)xanthones” (Biomolecules, 2020)

Tested on: Mytilus galloprovincialis plantigrade larvae
Test: Toxicity (mortality, LC50) to mussel plantigrade larvae in the anti-settlement bioassay
Format: in vivo
Method: The 19 xanthone derivatives were screened for anti-settlement activity toward M. galloprovincialis plantigrade larvae. Samples of M. galloprovincialis juveniles were collected from mussel beds during low tides in the intertidal zone of Memória beach, Matosinhos, Portugal (41°13′59″ N; 8°43′28″ W). Mussel plantigrade larvae (0.5–2 mm) were sorted in a binocular magnifier (Olympus SZX2-ILLT, Tokyo, Japan) and kept in filtered seawater until bioassays preparation. […] Five competent larvae were included per well and four well replicates per condition. Stock solutions (50 mM) in DMSO were used to prepare test media in filtered seawater (0.1%). Negative and positive controls were used, namely DMSO (0.1%) and CuSO4 (5 μM) as an efficient antifouling agent. After exposure, the anti-settlement bioactivity was determined by the observation of efficiently attached plantigrade larvae considering the existence/absence of produced byssal threads for each test condition. Compounds producing more than 50% of settlement inhibition at 50 µM were selected for antifouling effectiveness (EC50) and toxicity (LC50 and therapeutic index) bioassays, according to previously validated experimental conditions.
Therapeutic ratios (LC50/EC50) were used to evaluate the effectiveness versus toxicity of bioactive compounds. For the differential proteome analysis, non-parametric Kruskall-Wallis (KW) and Mann Whitney (MW) tests were utilized to report protein abundance differences between treatments in MultiExperiment Viewer (MeV) version 4.9 (The Institute for Genomic Research (TIGR), La Jolla, CA, USA) at a confidence level of 95% [34]. The hierarchical clustering of proteins was made using Pearson correlation and average linkage method.

| Compound | LC50/EC50 (therapeutic ratio) |
| --- | --- |
| CCCOc1ccc(NCCc2ccc3c(c2)OCO3)c2c(=O)c3ccccc3sc12 [Compound 15, 1-[11]-4-propoxy-9H-thioxanthen-9-one] | >17.48 |
| O=c1c2ccccc2oc2c(O)cccc12 [Compound 4, 4-hydroxy-] | >23.28 |
| O=c1c2ccccc2oc2ccc(O)c(O)c12 [Compound 5, 1,2-dihydroxy-] | >32.34 |
